Measurements published in patent US20210017289A1 (AbbVie / Abbott, published 2021).
Results are given in words; binding and its absence hold for the method and conditions named. Some results given as binding are weak or reduced against the parent protein; the word gives no strength.

T1: human OX40 expressed on cells (human, UniProt P43489 29-277)
T1 sequence: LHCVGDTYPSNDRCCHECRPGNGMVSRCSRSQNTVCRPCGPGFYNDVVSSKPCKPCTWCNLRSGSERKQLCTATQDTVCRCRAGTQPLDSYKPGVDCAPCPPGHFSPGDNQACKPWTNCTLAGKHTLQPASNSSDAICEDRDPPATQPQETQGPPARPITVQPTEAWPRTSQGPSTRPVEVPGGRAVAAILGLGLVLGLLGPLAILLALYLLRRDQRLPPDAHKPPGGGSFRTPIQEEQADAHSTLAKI


Legend:
293s-huOX40-muCRDIV = experiment: flow cytometry on 293s transfectants, Hu3738 added at 2 µg/mL, Cy5 donkey anti-human IgG
[1] = target: T1, human OX40 expressed on cells; experiment: flow cytometry competition on Jurkat-NF-κB-huOX40 cells; competitor labeled Hu3738
[2] = target: T1, human OX40 expressed on cells; experiment: competition by flow cytometry on Jurkat-NF-κB-huOX40 cells; competitor: ALEXA FLUOR 647-labeled Hu3738 at 2 µg/mL
Procedure: Analysis was performed by flow cytometry.

| binding (293s-huOX40-muCRDIV) | binding [1] | binding [2] | Binder |
| --- | --- | --- | --- |
| binds | – | – | Hu3738 (antibody, V domains shown, Humanized antibody; also called exemplary anti-OX40 antibody Hu3738; Hu3738 VH.1b / Hu3738 VL.1) VH: EVQLVESGGGLVQPGGSLRLSCAASGFTFSRYGMSWVRQAPGKGLELVATINSNGGRTYYPDSVKGRFTISRDNAKNSLYLQMNSLRAEDTAVYYCAREGITTAYAMDYWGQGTTVTVSS VL: DIVMTQSPDSLAVSLGERATINCKASQSVDYDGDSYMHWYQQKPGQPPKLLIYAASILESGVPDRFSGSGSGTDFTLTISSLQAEDVAVYYCQQSNEDPRTFGGGTKVEIKR |
| – | binds | binds | 106-222 (antibody, human IgG1, V domains shown, 2013/0280275) VH: QVQLVQSGSELKKPGASVKVSCKASGYTFTDYSMHWVRQAPGQGLKWMGWINTETGEPTYADDFKGRFVFSLDTSVSTAYLQISSLKAEDTAVYYCANPYYDYVSYYAMDYWGQGTTVTVSS VL: DIQMTQSPSSLSASVGDRVTITCKASQDVSTAVAWYQQKPGKAPKLLIYSASYLYTGVPSRFSGSGSGTDFTFTISSLQPEDIATYYCQQHYSTPRTFGQGTKLEIK |
